# Results are given in words; binding and its absence hold for the method and conditions named. For part of these data: Binding seen in cells or lysates may run through a third protein. Some binding calls cover weakened binding; strength is not graded here. For part of these data: Sequences can lack the tags named with a protein.
# Sequences of proteins named here, by UniProt entry; tags and fusion partners are left off. Residues count along the entry.
# UniProt Q17963, whole entry: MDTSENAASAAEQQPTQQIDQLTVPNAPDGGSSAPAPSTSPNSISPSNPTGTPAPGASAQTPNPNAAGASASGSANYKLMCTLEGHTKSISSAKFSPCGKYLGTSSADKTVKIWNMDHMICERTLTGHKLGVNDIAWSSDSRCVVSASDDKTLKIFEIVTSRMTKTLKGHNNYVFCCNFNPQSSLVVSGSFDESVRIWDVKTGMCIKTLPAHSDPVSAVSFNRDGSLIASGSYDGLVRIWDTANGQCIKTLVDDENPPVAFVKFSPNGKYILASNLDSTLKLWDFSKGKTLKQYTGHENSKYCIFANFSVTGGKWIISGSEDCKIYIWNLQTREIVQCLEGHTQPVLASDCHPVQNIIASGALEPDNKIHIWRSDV
# UniProt A5JYW9, whole entry: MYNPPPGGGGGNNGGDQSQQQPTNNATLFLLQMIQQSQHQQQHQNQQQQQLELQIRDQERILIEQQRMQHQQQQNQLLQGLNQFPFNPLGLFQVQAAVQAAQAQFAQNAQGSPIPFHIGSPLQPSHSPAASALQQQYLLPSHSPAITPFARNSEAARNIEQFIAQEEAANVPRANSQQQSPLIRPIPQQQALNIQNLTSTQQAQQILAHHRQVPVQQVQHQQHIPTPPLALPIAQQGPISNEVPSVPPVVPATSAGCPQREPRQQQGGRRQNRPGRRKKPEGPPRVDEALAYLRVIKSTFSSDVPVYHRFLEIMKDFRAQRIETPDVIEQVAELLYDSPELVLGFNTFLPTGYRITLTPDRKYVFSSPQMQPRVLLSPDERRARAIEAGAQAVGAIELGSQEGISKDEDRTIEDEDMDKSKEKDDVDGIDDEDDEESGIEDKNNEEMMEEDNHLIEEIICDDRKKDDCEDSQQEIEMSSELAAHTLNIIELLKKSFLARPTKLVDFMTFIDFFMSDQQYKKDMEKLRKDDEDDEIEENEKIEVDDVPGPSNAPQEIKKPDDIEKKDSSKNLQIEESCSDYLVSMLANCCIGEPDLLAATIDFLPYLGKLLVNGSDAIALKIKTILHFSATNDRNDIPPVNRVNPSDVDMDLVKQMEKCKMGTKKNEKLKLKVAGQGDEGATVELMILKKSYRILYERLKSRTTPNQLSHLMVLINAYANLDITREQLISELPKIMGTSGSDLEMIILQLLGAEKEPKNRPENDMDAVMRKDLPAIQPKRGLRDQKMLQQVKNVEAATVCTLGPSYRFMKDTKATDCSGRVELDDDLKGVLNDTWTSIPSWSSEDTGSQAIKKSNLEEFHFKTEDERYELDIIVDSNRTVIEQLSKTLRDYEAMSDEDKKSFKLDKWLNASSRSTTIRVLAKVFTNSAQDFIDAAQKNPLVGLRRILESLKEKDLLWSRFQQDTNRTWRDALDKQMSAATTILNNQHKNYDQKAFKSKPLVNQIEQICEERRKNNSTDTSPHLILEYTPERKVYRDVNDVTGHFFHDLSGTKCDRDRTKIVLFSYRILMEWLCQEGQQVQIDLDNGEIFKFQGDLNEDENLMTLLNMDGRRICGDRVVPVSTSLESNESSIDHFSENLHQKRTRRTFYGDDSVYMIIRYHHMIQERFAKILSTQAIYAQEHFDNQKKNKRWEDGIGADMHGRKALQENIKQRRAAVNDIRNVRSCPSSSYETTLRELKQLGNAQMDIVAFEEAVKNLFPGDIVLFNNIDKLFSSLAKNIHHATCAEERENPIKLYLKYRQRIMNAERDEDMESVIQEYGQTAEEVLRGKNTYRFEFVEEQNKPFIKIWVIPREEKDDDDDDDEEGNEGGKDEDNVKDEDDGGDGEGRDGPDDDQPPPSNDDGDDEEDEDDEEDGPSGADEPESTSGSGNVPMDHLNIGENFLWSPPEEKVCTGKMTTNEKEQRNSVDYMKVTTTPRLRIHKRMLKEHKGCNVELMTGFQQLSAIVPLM
# UniProt A5JYW9, 1-738: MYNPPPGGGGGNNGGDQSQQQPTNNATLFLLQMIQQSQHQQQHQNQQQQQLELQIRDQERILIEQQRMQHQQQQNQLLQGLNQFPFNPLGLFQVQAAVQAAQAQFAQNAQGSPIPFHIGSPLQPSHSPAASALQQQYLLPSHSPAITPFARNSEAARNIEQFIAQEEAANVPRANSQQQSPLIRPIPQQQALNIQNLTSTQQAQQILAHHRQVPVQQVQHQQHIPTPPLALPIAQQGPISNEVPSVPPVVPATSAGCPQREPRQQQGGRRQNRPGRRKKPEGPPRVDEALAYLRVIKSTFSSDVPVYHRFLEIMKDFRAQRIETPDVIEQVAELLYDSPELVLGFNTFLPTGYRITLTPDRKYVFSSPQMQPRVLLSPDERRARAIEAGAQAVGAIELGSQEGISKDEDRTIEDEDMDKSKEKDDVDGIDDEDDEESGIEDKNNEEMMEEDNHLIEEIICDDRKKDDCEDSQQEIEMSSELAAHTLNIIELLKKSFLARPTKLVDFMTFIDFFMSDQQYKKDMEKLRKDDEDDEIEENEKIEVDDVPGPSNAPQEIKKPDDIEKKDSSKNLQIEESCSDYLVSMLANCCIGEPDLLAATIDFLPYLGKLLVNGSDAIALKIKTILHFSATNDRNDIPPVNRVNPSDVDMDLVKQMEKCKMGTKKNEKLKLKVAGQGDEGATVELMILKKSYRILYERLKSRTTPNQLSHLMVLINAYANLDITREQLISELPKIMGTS
# UniProt O17695, whole entry: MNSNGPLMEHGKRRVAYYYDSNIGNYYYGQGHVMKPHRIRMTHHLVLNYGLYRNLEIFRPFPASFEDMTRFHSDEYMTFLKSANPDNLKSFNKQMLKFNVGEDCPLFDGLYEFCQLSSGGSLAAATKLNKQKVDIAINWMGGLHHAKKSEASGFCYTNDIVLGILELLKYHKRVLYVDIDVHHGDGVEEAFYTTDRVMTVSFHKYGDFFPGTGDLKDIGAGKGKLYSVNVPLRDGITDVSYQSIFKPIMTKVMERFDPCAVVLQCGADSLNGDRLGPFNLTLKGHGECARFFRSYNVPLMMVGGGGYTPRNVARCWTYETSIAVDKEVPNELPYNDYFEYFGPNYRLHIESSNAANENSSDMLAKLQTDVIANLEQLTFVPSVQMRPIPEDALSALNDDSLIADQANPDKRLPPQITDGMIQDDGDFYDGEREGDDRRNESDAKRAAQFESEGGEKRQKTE
# T1: CFP-1::GFP (C. elegans) (UniProt Q9XUE7)
# T1 sequence: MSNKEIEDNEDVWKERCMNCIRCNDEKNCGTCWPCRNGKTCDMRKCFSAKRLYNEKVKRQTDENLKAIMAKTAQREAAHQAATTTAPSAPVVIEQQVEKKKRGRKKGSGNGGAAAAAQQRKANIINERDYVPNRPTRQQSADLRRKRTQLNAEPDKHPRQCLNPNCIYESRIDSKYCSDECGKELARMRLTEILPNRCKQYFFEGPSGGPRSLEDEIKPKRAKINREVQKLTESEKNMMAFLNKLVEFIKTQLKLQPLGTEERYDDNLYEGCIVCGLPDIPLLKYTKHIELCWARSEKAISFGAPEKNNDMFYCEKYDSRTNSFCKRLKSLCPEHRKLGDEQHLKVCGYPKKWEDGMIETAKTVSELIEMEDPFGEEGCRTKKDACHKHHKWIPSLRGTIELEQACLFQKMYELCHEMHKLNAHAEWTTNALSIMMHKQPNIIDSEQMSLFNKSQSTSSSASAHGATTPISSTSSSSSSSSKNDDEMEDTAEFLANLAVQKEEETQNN
# B1: ASH-2 (protein, UniProt G5EFZ3 1-570)
# chain: MRSSKGGRGRQAAPKTAPTTVCYCDGKRELGSVEVVCSTCLKWFHGRCLKEFHELNSNGVPFMICYTFTCKQCRPTAEDWKAKKADLVQMCVTVLATLSAERLKADGKLSAEHVPEDFTYLSLKDEIVPYMNENWYMLTAIKQKKEWHQNLAPTLLKEKNIFVQHNDDDDLFALAEKNLSLLGPLHEAVKLIGKRPIERENREPRHIELPPIEGPKTRGASKRRHAEAPVTGKKQKLAADYSSTAAPNGVQIDIPFSKDNYRYYLTEVDPNVPEDPAWNQNQSSAYVIPSFHYRELLNPTVNVSSNDRAFQLSINGNSITGFEGYSMARASHGVSKGTWYFEVNFDDQPDDSHIRIGWSQSYASLQACVGYNKFSYGWRSKHGTKFHEAKGKKYHFGGFKQGDVLGCLIHLPVDKKLQIPANLPSEKYLPVSHKGFNLISFKANYFFEVQEESADIAKTLVEMPGSYIEFFHNGKSCGKAYENIYAGAYYPSISIFKSATATMNLGPKFRNLPRGATGIHARADEQQHEQTLSDMLYLVSKEVNLDHPPRVKREDDDDVKDIKKEIKQEI
# B2: MRG-1 (protein, UniProt A7DTF0 1-337)
# chain: MSSKKNFEVGENVACIYKGKPYDAKITDIKTNSDGKELYCVHFKGWNNRYDEKIPVGEEKDRIFKGTASEYAEKHNAELPTTALKPKKKSLAAEAPRDDRDDTPGTSKGKKAKSVTIAPVMTADDMKVELPKPLRKILIDDYDLVCRYFINIVPHEYSVDQIIEDYIKTIPVSNEQMRTVDDLLIEYEEADIKITNLALICTARGLVDYFNVTLGSSYQLLYKFERPQYNDLVKKRAMEKGIDITNPTALQDSGFRPSQEYGIVHFLRMLAKLPDYLKLTQWNDHVINRIMIGVHDLIVFLNKNHGKYYRGSSDYQGASNDYYRRSLAADDGVGANQ
# B3: CFP-1, full length, two-hybrid fusion (protein, UniProt Q9XUE7 1-508)
# chain: MSNKEIEDNEDVWKERCMNCIRCNDEKNCGTCWPCRNGKTCDMRKCFSAKRLYNEKVKRQTDENLKAIMAKTAQREAAHQAATTTAPSAPVVIEQQVEKKKRGRKKGSGNGGAAAAAQQRKANIINERDYVPNRPTRQQSADLRRKRTQLNAEPDKHPRQCLNPNCIYESRIDSKYCSDECGKELARMRLTEILPNRCKQYFFEGPSGGPRSLEDEIKPKRAKINREVQKLTESEKNMMAFLNKLVEFIKTQLKLQPLGTEERYDDNLYEGCIVCGLPDIPLLKYTKHIELCWARSEKAISFGAPEKNNDMFYCEKYDSRTNSFCKRLKSLCPEHRKLGDEQHLKVCGYPKKWEDGMIETAKTVSELIEMEDPFGEEGCRTKKDACHKHHKWIPSLRGTIELEQACLFQKMYELCHEMHKLNAHAEWTTNALSIMMHKQPNIIDSEQMSLFNKSQSTSSSASAHGATTPISSTSSSSSSSSKNDDEMEDTAEFLANLAVQKEEETQNN
# B4: MRG-1, full length, two-hybrid fusion (protein, UniProt A7DTF0 1-337)
# chain: MSSKKNFEVGENVACIYKGKPYDAKITDIKTNSDGKELYCVHFKGWNNRYDEKIPVGEEKDRIFKGTASEYAEKHNAELPTTALKPKKKSLAAEAPRDDRDDTPGTSKGKKAKSVTIAPVMTADDMKVELPKPLRKILIDDYDLVCRYFINIVPHEYSVDQIIEDYIKTIPVSNEQMRTVDDLLIEYEEADIKITNLALICTARGLVDYFNVTLGSSYQLLYKFERPQYNDLVKKRAMEKGIDITNPTALQDSGFRPSQEYGIVHFLRMLAKLPDYLKLTQWNDHVINRIMIGVHDLIVFLNKNHGKYYRGSSDYQGASNDYYRRSLAADDGVGANQ
# B5: CFP-1::GFP (protein, UniProt Q9XUE7 1-508)
# chain: MSNKEIEDNEDVWKERCMNCIRCNDEKNCGTCWPCRNGKTCDMRKCFSAKRLYNEKVKRQTDENLKAIMAKTAQREAAHQAATTTAPSAPVVIEQQVEKKKRGRKKGSGNGGAAAAAQQRKANIINERDYVPNRPTRQQSADLRRKRTQLNAEPDKHPRQCLNPNCIYESRIDSKYCSDECGKELARMRLTEILPNRCKQYFFEGPSGGPRSLEDEIKPKRAKINREVQKLTESEKNMMAFLNKLVEFIKTQLKLQPLGTEERYDDNLYEGCIVCGLPDIPLLKYTKHIELCWARSEKAISFGAPEKNNDMFYCEKYDSRTNSFCKRLKSLCPEHRKLGDEQHLKVCGYPKKWEDGMIETAKTVSELIEMEDPFGEEGCRTKKDACHKHHKWIPSLRGTIELEQACLFQKMYELCHEMHKLNAHAEWTTNALSIMMHKQPNIIDSEQMSLFNKSQSTSSSASAHGATTPISSTSSSSSSSSKNDDEMEDTAEFLANLAVQKEEETQNN
# How the values were obtained:
# [1] = target: GST::CFP-1 (C. elegans) (UniProt Q9XUE7); test: pull-down
# [2] = target: T1, CFP-1::GFP (C. elegans); test: co-IP
# [3] = target: HA::WDR-5.1 (C. elegans) (UniProt Q17963); test: co-IP
# [4] = target: SIN-3, full length, two-hybrid fusion (C. elegans) (UniProt A5JYW9); test: two-hybrid
# [5] = target: CFP-1, full length, two-hybrid fusion (C. elegans) (UniProt Q9XUE7); test: two-hybrid
# [6] = target: MRG-1, full length, two-hybrid fusion (C. elegans) (UniProt A7DTF0); test: two-hybrid
Molecule,binding [2],binding [3],other results
HIS6::SIN-3 N-terminal domain (aa 1-738) (from UniProt A5JYW9 1-738) (domain or fragment),,,binding [1]: binds
HA::WDR-5.1 (from UniProt Q17963 1-376),binds,,
HDA-1 (from UniProt O17695 1-461),binds,binds,
SIN-3 (from UniProt A5JYW9 1-1507),binds,,
B1,binds,binds,
B2,binds,,
B3,,,binding [4]: binds; binding [5]: binds
B4,,,binding [6]: binds
B5,,binds,
